According to publication PMC12705695:
Results are given in words; binding and its absence hold for the method and conditions named. In cells and extracts the contact can be indirect. Some results given as binding are weak or reduced against the parent protein; the word gives no strength.

Biological target: T1, Nucleosome assembly protein-like 1 (mouse (endogenous in adult mouse cardiomyocytes)) (UniProt P28656)
T1 sequence: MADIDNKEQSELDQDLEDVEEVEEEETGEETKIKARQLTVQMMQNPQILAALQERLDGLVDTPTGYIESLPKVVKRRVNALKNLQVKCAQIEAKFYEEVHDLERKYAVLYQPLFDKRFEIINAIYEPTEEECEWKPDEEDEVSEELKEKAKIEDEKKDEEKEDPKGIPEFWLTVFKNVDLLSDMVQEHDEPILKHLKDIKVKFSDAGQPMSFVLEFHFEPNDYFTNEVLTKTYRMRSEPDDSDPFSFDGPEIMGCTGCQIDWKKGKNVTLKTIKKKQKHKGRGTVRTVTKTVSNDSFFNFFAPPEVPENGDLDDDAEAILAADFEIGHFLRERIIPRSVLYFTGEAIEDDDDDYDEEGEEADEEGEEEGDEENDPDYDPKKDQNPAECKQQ
Assay: co-IP; endogenous proteins; total protein from cultured cardiomyocytes (normoxia or hypoxia/normoxia, treated with rbWnt2 or PBS); 1000 ug total protein with the IP antibody or rabbit IgG at 4 °C overnight, Protein A/G PLUS-Agarose 4 h at 4 °C, washed with PBS 3 times, western blot

B1: Trim11 (enzyme, UniProt Q99PQ2 1-467)
chain: MAAPDLSTNLQEEATCAICLDYFTDPVMTDCGHNFCRECIRRCWGQPEGPYACPECRELSAQRNLRPNRPLAKMAEMARRLHPPSPVPQGVCAAHREPLTTFCGDDLSLLCPICERSEHWTHRVRPLQEAADDLKGRLEKSLEHLRKQMEDAMLFQAQAEETCALWQKMVESQRQNVLGEFERLRRLLAEEEQQLLQKLEEEELEVLPRLREGAARLGQQSTQLAALISELESRCQLPALGLLQDIKDALCRVQDVKLQPPAVVPMELRTVCRVPGLVETLRRFRGDITLDPDTANPELVLSEDRRSVQRGEQRQALPDNPERFDPGPCVLGQERITSGRHYWEVEVGDQTSWALGVCKETANRKEKGELSAGNGFWILVFLGSFYNSNEPAFSPLRDPPKRVGIFLDYEAGHLSFYSATDGSLLFIFPETLFSGTLRPLFSPLSSSPTPMTICRLIGVSGDTLGPQ
- binding: binds
